Assay results reported in the supplement of paper PMC12823440, “Inhibitors supercharge kinase turnover through native proteolytic circuits” (Nature, 2025).
Some of the results follow. The calls rarely recur for the same compound in another form.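 In K562 cells expressing nanoluciferase-fused kinases, luminescence was recorded at 4 h intervals between 2 and 18 h, normalized as percent of control with DMSO at 100% and a positive control at 0%. A significant (2 sigma) signal drop marks a time point as decreased. The authors' rule for a hit is not shown and takes in more than the number of time points.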

Sequences of proteins named here, by UniProt entry; tags and fusion partners are left off. A change or cut given only in a name is not applied to a line headed by its entry.
UniProt P28482, whole entry: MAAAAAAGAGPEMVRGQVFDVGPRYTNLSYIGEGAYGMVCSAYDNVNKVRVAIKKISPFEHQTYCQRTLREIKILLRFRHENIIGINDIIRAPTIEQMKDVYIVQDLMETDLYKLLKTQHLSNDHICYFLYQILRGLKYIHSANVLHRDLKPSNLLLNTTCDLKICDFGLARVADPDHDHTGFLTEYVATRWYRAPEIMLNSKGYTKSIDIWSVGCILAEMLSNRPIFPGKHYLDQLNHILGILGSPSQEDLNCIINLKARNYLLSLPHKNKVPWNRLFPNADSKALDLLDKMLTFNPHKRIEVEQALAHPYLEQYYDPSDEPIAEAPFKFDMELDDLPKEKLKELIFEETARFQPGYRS
UniProt P31152, whole entry: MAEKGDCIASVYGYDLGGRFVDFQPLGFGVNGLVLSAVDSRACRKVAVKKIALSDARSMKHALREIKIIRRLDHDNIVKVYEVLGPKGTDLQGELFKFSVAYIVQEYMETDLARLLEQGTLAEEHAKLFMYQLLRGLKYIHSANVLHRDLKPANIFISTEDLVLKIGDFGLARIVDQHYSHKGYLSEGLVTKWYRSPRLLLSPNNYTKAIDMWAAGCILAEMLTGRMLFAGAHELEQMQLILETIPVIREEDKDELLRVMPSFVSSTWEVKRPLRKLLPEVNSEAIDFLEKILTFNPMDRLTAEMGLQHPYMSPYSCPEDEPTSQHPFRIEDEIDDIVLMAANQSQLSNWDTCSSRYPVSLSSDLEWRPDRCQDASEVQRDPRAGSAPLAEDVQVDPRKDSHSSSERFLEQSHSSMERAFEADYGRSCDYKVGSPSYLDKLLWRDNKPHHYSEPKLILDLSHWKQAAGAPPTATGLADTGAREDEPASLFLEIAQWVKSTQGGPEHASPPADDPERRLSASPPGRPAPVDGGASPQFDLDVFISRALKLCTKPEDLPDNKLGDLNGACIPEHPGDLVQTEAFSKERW
UniProt Q9BUB5: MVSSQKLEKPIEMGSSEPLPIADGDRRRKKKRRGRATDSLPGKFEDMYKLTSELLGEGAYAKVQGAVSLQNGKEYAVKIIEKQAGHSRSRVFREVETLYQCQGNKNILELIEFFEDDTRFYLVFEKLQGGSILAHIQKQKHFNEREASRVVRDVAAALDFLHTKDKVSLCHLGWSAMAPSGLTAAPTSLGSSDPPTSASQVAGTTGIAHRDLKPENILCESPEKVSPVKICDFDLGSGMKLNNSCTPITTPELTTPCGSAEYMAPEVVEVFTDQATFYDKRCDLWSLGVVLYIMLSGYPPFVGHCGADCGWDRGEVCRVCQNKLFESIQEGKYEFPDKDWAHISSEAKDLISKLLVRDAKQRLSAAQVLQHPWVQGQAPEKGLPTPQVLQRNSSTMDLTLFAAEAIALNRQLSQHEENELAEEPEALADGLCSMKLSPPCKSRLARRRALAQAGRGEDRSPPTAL
UniProt Q16288, whole entry, looked up: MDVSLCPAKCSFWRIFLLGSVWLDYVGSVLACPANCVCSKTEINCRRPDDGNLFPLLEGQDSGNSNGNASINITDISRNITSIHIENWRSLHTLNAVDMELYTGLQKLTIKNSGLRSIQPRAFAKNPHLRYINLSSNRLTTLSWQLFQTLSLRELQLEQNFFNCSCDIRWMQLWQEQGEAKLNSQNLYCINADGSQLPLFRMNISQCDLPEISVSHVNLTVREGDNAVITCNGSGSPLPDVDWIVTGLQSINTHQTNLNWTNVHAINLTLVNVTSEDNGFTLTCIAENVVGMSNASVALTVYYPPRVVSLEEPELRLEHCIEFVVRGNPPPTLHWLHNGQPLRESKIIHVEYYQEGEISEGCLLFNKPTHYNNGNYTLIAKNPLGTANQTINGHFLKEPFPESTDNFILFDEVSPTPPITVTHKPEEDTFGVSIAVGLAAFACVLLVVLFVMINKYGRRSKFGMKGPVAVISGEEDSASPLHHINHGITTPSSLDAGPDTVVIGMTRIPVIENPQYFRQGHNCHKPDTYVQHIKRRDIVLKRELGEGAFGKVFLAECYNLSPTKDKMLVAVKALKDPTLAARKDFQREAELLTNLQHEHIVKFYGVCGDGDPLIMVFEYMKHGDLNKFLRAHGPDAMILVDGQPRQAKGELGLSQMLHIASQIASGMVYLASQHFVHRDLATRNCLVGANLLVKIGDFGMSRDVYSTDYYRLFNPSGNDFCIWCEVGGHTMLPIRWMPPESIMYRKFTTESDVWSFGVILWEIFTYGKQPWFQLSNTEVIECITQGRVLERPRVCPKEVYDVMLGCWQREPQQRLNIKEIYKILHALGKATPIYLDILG
UniProt Q96KB5: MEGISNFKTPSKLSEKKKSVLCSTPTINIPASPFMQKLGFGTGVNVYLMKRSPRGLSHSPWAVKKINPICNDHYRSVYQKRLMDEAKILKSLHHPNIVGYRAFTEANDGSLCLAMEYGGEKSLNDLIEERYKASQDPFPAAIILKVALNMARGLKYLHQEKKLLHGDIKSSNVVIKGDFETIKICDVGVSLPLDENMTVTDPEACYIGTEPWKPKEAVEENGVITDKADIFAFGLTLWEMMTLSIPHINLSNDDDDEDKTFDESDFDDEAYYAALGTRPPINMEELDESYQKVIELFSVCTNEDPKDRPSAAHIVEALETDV
UniProt P42356, whole entry, looked up: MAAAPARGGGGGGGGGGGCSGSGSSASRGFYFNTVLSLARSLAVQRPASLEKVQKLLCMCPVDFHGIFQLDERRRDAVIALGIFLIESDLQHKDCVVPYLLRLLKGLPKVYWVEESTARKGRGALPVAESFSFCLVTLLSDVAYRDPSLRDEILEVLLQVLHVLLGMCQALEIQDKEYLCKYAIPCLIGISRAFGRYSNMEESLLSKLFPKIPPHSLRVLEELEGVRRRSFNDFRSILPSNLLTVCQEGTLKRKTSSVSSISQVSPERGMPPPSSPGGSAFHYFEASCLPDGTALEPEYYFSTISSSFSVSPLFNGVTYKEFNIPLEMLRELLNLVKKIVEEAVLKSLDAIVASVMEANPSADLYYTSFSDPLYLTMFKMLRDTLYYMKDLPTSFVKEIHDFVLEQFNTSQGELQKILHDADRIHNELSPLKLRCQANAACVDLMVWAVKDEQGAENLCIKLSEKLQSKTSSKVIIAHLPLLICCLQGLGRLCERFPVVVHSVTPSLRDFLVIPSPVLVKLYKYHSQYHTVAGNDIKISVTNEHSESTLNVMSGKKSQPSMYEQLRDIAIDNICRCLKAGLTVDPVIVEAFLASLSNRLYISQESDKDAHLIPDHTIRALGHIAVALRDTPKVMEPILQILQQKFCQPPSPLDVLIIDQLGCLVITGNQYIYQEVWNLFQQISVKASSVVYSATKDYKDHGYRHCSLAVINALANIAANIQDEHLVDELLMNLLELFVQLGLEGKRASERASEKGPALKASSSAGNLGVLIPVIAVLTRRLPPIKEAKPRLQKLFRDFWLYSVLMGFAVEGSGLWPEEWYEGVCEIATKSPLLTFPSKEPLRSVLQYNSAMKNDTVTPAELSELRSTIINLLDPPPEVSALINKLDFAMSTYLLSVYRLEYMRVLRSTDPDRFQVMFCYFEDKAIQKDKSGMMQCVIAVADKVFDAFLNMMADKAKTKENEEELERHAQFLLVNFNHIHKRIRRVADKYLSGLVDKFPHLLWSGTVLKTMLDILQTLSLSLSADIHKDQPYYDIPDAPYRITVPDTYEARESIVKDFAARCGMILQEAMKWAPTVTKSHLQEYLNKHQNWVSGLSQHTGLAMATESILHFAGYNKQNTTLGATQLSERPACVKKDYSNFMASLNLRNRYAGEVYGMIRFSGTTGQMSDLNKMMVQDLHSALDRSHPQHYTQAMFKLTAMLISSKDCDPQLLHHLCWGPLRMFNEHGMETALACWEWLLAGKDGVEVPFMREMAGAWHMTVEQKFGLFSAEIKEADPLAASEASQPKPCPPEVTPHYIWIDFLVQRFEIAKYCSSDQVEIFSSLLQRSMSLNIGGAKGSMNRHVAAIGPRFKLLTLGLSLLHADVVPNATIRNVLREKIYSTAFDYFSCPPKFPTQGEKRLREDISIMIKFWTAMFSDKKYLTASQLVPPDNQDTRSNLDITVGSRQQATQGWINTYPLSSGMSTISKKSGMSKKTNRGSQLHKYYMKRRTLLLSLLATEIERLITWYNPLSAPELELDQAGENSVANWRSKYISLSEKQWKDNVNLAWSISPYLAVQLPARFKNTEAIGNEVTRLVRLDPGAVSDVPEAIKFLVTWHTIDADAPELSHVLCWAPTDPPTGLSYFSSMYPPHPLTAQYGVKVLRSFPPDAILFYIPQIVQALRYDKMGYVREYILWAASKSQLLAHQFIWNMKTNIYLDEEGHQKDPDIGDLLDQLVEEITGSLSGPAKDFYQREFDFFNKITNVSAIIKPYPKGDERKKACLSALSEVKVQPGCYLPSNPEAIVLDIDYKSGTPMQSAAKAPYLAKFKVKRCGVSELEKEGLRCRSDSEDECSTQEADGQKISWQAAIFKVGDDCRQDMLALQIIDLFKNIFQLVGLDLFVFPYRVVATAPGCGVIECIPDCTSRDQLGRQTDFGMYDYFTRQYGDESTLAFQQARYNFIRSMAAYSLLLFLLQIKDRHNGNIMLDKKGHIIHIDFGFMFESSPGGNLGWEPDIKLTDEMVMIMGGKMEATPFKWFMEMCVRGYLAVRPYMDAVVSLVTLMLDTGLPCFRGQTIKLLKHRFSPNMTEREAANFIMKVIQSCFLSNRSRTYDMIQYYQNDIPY
UniProt Q13131: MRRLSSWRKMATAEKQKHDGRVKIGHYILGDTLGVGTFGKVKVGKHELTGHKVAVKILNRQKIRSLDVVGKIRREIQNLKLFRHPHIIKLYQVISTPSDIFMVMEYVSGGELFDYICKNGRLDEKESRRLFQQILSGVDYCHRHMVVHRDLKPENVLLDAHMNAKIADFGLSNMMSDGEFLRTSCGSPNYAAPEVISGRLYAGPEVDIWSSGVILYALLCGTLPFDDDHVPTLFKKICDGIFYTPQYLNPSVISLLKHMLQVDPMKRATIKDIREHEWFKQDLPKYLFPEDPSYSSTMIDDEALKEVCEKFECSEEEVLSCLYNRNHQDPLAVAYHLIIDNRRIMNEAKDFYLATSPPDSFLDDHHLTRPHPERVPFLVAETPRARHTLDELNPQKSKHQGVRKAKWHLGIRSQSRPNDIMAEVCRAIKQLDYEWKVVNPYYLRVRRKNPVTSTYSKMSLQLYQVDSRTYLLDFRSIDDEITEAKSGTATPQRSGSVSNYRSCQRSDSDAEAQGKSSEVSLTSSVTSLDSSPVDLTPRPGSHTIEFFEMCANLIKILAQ
UniProt Q05397, whole entry, looked up: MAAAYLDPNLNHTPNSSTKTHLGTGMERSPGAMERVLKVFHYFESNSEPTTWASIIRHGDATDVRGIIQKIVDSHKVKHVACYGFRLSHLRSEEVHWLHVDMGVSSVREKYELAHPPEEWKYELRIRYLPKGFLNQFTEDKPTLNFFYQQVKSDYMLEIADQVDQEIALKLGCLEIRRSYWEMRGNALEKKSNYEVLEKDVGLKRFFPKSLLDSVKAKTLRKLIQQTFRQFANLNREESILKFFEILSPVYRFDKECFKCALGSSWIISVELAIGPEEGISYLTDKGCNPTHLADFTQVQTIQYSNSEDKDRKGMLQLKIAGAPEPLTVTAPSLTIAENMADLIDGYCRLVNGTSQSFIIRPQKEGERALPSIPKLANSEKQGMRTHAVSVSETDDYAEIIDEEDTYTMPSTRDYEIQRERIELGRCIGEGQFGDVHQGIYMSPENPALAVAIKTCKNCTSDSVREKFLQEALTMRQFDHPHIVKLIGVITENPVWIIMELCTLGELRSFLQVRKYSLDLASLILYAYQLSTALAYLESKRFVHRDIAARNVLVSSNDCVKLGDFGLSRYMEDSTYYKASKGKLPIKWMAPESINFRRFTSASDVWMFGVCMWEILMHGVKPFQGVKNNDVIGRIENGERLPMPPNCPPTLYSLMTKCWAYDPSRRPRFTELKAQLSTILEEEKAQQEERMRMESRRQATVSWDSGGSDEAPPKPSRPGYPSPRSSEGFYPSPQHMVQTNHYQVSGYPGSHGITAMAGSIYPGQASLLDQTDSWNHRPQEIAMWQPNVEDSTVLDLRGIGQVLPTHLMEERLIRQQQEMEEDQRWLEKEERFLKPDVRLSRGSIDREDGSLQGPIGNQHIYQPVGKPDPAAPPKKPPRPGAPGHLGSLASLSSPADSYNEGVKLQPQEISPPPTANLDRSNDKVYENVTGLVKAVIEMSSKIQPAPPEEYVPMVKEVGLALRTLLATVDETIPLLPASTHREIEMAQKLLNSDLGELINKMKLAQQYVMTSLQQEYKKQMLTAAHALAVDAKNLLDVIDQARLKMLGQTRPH

Key:
Test in all cases: kinase-Nluc reporter destabilization hit call (1 = scored as downregulated) (binary); higher = compound decreases kinase abundance
Details in all cases: K562; 2-18 h
MAPK1 = MAPK1 (UniProt P28482)
MAPK4 = MAPK4 (UniProt P31152)
MAPKAPK2 = MAPKAPK2 (UniProt P49137)
MKNK1 = MKNK1 (UniProt Q9BUB5)
NTRK2 = NTRK2 (UniProt Q16620)
NTRK3 = NTRK3 (UniProt Q16288)
PAK4 = PAK4 (UniProt O96013)
PBK = PBK (UniProt Q96KB5)
PDGFRB = PDGFRB (UniProt P09619)
PDK1 = PDK1 (UniProt Q15118)
PDPK1 = PDPK1 (UniProt O15530)
PIK4CA = PIK4CA (UniProt P42356)
PIK4CB = PIK4CB (UniProt Q9UBF8)
PLK1 = PLK1 (UniProt P53350)
PRKAA1 = PRKAA1 (UniProt Q13131)
PRKCA = PRKCA (UniProt P17252)
PTK2 = PTK2 (UniProt Q05397)
PTK2B = PTK2B (UniProt Q14289)
RAF1 = RAF1 (UniProt P04049)
[1] = molecular target: RAF1_S257L (clone: RAF1_mut) (UniProt P04049)

Measured: kinase-Nluc reporter destabilization hit call

C[C@H](CC[C@@H](O)C(C)(C)O)[C@H]1CC[C@@]2(C)[C@@H]3CC=C4[C@@H](CC[C@H](O)C4(C)C)[C@]3(C)[C@H](O)C[C@]12C [Mogrol] (10 µM)
inactive: MAPK1 = 0 | MAPK4 = 0 | MAPKAPK2 = 0 | MKNK1 = 0 | NTRK2 = 0 | NTRK3 = 0 | PAK4 = 0 | PBK 0 | PDGFRB 0 | PDK1 = 0 | PDPK1 = 0 | PIK4CA 0 | PIK4CB 0 | PLK1 = 0 | PRKAA1 = 0 | PRKCA 0 | PTK2 = 0 | PTK2B 0 | RAF1 = 0 | [1] 0

O=C1C(=Cc2ccc(O)c(O)c2)Oc2ccccc21 (2.5 µM)
inactive: MAPK1 = 0 | MAPK4 = 0 | MAPKAPK2 = 0 | MKNK1 = 0 | NTRK2 = 0 | NTRK3 = 0 | PAK4 = 0 | PBK 0 | PDGFRB 0 | PDK1 = 0 | PDPK1 = 0 | PIK4CA 0 | PIK4CB 0 | PLK1 = 0 | PRKAA1 = 0 | PRKCA 0 | PTK2 = 0 | PTK2B 0 | RAF1 = 0 | [1] 0

CC1=C(C(=O)Nc2ccc3[nH]ncc3c2)C(c2ccc(F)c(C(=O)NCc3ccccn3)c2)NC(=O)N1 (stereo not given) (10 µM)
inactive: MAPK1 = 0 | MAPK4 = 0 | MAPKAPK2 = 0 | MKNK1 = 0 | NTRK2 = 0 | NTRK3 = 0 | PAK4 = 0 | PBK 0 | PDGFRB 0 | PDK1 = 0 | PDPK1 = 0 | PIK4CA 0 | PIK4CB 0 | PLK1 = 0 | PRKAA1 = 0 | PRKCA 0 | PTK2 = 0 | PTK2B 0 | RAF1 = 0 | [1] 0

COc1cc(Nc2nc3ccccc3nc2NS(=O)(=O)c2ccc(NC(=O)c3ccc(C)c(OC)c3)cc2)cc(OC)c1 (10 µM)
inactive: MAPK1 = 0 | MAPK4 = 0 | MAPKAPK2 = 0 | MKNK1 = 0 | NTRK2 = 0 | NTRK3 = 0 | PAK4 = 0 | PBK 0 | PDGFRB 0 | PDK1 = 0 | PDPK1 = 0 | PIK4CA 0 | PIK4CB 0 | PLK1 = 0 | PRKAA1 = 0 | PRKCA 0 | PTK2 = 0 | PTK2B 0 | RAF1 = 0 | [1] 0

COc1ccc(-c2cnc3c(-c4cccc5ncccc45)cnn3c2)cc1 (10 µM)
inactive: MAPK1 = 0 | MAPK4 = 0 | MAPKAPK2 = 0 | MKNK1 = 0 | NTRK2 = 0 | NTRK3 = 0 | PAK4 = 0 | PBK 0 | PDGFRB 0 | PDK1 = 0 | PDPK1 = 0 | PIK4CA 0 | PIK4CB 0 | PLK1 = 0 | PRKAA1 = 0 | PRKCA 0 | PTK2 = 0 | PTK2B 0 | RAF1 = 0 | [1] 0

C1=N/C2=N/c3ccc(OCCN4CCCC4)c(c3)COC/C=C/COCc3cccc(c3)C(=C1)N2 [Pacritinib] (2.5 µM)
inactive: MAPK1 = 0 | MAPK4 = 0 | MAPKAPK2 = 0 | MKNK1 = 0 | NTRK2 = 0 | NTRK3 = 0 | PAK4 = 0 | PBK 0 | PDGFRB 0 | PDK1 = 0 | PDPK1 = 0 | PIK4CA 0 | PIK4CB 0 | PLK1 = 0 | PRKAA1 = 0 | PRKCA 0 | PTK2 = 0 | PTK2B 0 | RAF1 = 0 | [1] 0

C[C@@H]1O[C@@H](O[C@H]2[C@H](OC(=O)[C@]34CCC(C)(C)C[C@H]3C3=CC[C@@H]5[C@@]6(C)C[C@H](O)[C@H](O[C@@H]7O[C@H](CO)[C@@H](O)[C@H](O)[C@H]7O)C(CO)(CO)[C@@H]6CC[C@@]5(C)[C@]3(C)C[C@H]4O)OC[C@H](O)[C@@H]2O)[C@H](O)[C@H](O)[C@H]1O[C@@H]1OC[C@@H](O)[C@H](O[C@@H]2OC[C@](O)(CO)[C@H]2O)[C@H]1O [Platycodin D] (10 µM)
inactive: MAPK1 = 0 | MAPK4 = 0 | MAPKAPK2 = 0 | MKNK1 = 0 | NTRK2 = 0 | NTRK3 = 0 | PAK4 = 0 | PBK 0 | PDGFRB 0 | PDK1 = 0 | PDPK1 = 0 | PIK4CA 0 | PIK4CB 0 | PLK1 = 0 | PRKAA1 = 0 | PRKCA 0 | PTK2 = 0 | PTK2B 0 | RAF1 = 0 | [1] 0

COc1cc(OC)c(/C=C/S(=O)(=O)Cc2ccc(OC)c(NCC(=O)O)c2)c(OC)c1 [Rigosertib (sodium)] (10 µM)
inactive: MAPK1 = 0 | MAPK4 = 0 | MAPKAPK2 = 0 | MKNK1 = 0 | NTRK2 = 0 | NTRK3 = 0 | PAK4 = 0 | PBK 0 | PDGFRB 0 | PDK1 = 0 | PDPK1 = 0 | PIK4CA 0 | PIK4CB 0 | PLK1 = 0 | PRKAA1 = 0 | PRKCA 0 | PTK2 = 0 | PTK2B 0 | RAF1 = 0 | [1] 0

C[C@@H]1CN(CC(=O)Nc2ccc3c(c2)Cc2cccc(-c4cc(=O)cc(N5CCOCC5)o4)c2S3)C[C@H](C)O1 (2.5 µM)
inactive: MAPK1 = 0 | MAPK4 = 0 | MAPKAPK2 = 0 | MKNK1 = 0 | NTRK2 = 0 | NTRK3 = 0 | PAK4 = 0 | PBK 0 | PDGFRB 0 | PDK1 = 0 | PDPK1 = 0 | PIK4CA 0 | PIK4CB 0 | PLK1 = 0 | PRKAA1 = 0 | PRKCA 0 | PTK2 = 0 | PTK2B 0 | RAF1 = 0 | [1] 0

CCCCCC1CC1CC1CC1CCCCCCCC(=O)O (stereo not given) (10 µM)
inactive: MAPK1 = 0 | MAPK4 = 0 | MAPKAPK2 = 0 | MKNK1 = 0 | NTRK2 = 0 | NTRK3 = 0 | PAK4 = 0 | PBK 0 | PDGFRB 0 | PDK1 = 0 | PDPK1 = 0 | PIK4CA 0 | PIK4CB 0 | PLK1 = 0 | PRKAA1 = 0 | PRKCA 0 | PTK2 = 0 | PTK2B 0 | RAF1 = 0 | [1] 0

N#Cc1c[nH]c2ccc(-c3ccc(-c4c(O)cccc4O)cc3)cc12 (10 µM)
inactive: MAPK1 = 0 | MAPK4 = 0 | MAPKAPK2 = 0 | MKNK1 = 0 | NTRK2 = 0 | NTRK3 = 0 | PAK4 = 0 | PBK 0 | PDGFRB 0 | PDK1 = 0 | PDPK1 = 0 | PIK4CA 0 | PIK4CB 0 | PLK1 = 0 | PRKAA1 = 0 | PRKCA 0 | PTK2 = 0 | PTK2B 0 | RAF1 = 0 | [1] 0
